The other results are listed elsewhere or left out.

The assay relates to T1, CTL2-GFP (C. trachomatis L2/434/Bu, GFP-expressing).
T1 construct: L2/434/Bu, GFP-expressing
Details: species or system HeLa; Intracellular C. trachomatis growth in HeLa cells, bulk GFP fluorescence relative to DMSO. Conditions: bulk GFP, single well; 28.5 h, 10 µM; inhibitor.
Turning to `Cc1nc2ccc(C(=O)N(C)CCN(C)C)cn2c1N(C)C(=O)c1cccs1` [CBK146528], the “% of control remaining” value was 90.4107%.
The figure for `O=C(O)CCc1ccc(-c2cccs2)n1CCc1ccccc1` [CBK265983] is 70.5605%.
As to `c1ccc(-c2oc3ncn4nc(COc5cccc6ccccc56)nc4c3c2-c2ccccc2)cc1` [CBK262898], the “% of control remaining” value came out at 100%.
The figure for `CN(Cc1ccc(-c2ccc(S(C)(=O)=O)cc2)nc1)C1CCN(C(=O)CC(F)(F)F)CC1` [CBK164098T] is 117.032%; for `c1cc(Sc2nccnc2N2CCCC2)ccn1` [CBK093807] it is 111.318%; for `O=C(OCCCc1cccnc1)c1cc(=O)[nH]c2ccccc12` [CBK295631] it is 132.715%.
Under `c1ccc(-c2cc3nccc(-c4ccccc4)n3n2)cc1` [CBK287871] stands 101.647%; under `O=c1[nH]c2ncc(-c3cccc4ccccc34)nc2n1Cc1cccnc1` [CBK064274], 136.393%.
The figure for `O=C(c1ccco1)N1CCN(c2cncc(-c3cccs3)n2)CC1` [CBK065518] is 129.052%; for `N#Cc1cn(Cc2ccco2)c(=O)[nH]c1=O` [CBK010407] it is 175.678%; for `O=C1N=C(NC2C3CC4CC(C3)CC2C4)OC12CCCC2` (stereo not shown) [CBK113576] it is 108.514%.
For `CN1C[C@@H](NC(=O)NCc2ccccc2)C[C@H]1c1nc(-c2cncnc2)no1` [CBK288878], the “% of control remaining” value came to 135.368%.
As for `COC(=O)C1CCN(C(=O)c2ccc(Oc3cccc(Br)c3)nc2)CC1` [CBK304235], the “% of control remaining” value was 110.188%.
The figure for `CC(=O)NC(c1ccccn1)C1CCCN(C(=O)C(C)(C)C)C1` (stereo not shown) [CBK285101] is 137.093%; for `NC(=O)c1cccc(-n2ncc(-c3cccnc3)n2)c1` [CBK112806] it is 108.849%; for `COCCNS(=O)(=O)c1ccc(Br)c(C(=O)N(C)Cc2cnn(C)c2)c1` [CBK304795] it is 176.123%.
Turning to `COc1cc(C)c(Nc2cccc(-c3ccc(O)cc3)n2)cc1OC` [CBK037608], the “% of control remaining” value came out at 49.5536%.
As to `CNCc1ccccc1Sc1cccc(OC)c1` [CBK026207C], the “% of control remaining” value came to 96.2892%.
Under `CC(C)(C)c1cc(C(=O)NCC2CCCN2)n(Cc2ccc(Cl)cc2Cl)n1` (stereo not shown) [CBK115920C] stands 63.1957%; under `COc1ccccc1-c1nccnc1NCc1ccccn1` [CBK036894], 105.316%; under `CN1CCCN(c2cncc(-c3ccc4c(c3)OCO4)n2)CC1` [CBK065978], 181.053%.
The figure for `CCOC(=O)c1sc(NC(=O)CCNC(=O)c2ccccc2C(=O)O)c(C#N)c1C` [CBK295152] is 96.3419%.

These data come from paper PMC12040169 (PLOS Biology, 2025).
